For some assays here: Negatives hold for the conditions tested. Where a protein sequence is shown, tags need not be part of it. For some assays here: The exact form of at least one protein or probe is not confirmed.
What was measured:
[1] = target: T1, cytohesin-1 (full-length) (UniProt Q15438); test: SELEX; conditions: clone from round 13; purified recombinant protein; protein details: 6xHis (cytohesin-1-His6), E. coli, Ni-NTA
T1 sequence (looked up): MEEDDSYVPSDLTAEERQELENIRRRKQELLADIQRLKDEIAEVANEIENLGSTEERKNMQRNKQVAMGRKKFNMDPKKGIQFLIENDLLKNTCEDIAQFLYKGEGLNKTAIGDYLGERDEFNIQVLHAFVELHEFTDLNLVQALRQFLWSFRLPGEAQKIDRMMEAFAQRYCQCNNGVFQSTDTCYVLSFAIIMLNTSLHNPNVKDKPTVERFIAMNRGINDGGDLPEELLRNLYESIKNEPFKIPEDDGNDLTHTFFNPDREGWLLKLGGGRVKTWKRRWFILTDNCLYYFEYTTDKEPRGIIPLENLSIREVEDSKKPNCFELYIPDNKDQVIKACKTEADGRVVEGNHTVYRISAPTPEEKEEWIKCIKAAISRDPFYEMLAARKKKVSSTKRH

[2] = target: T2, Gea2 Sec7 domain (Gea2-Sec7, G2-Sec7) (UniProt P39993); test: inhibition of the protein; conditions: exchange activity not influenced at 3.2 µM; purified recombinant protein; protein details: 6xHis, provided by Cathy Jackson; label: 5'-32P (filter binding)
T2 sequence (looked up, limits assumed): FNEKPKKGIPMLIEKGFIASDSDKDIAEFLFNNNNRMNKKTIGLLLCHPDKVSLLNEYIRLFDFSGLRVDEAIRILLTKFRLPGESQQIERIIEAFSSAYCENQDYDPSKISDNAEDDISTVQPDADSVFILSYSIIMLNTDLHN

[3] = target: T3, cytohesin-1 Sec7 domain (C1-Sec7) (UniProt Q15438); test: inhibition of the protein; conditions: inhibits GDP/GTP exchange on ARF-1 at 3.2 µM; purified recombinant protein; protein details: 6xHis, E. coli; label: 5'-32P (filter binding)
T3 sequence (looked up, limits assumed): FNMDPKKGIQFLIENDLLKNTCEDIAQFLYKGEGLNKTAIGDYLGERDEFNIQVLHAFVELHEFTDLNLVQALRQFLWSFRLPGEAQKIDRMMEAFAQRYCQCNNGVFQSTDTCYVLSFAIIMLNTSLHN

[4] = target: T4, cytohesin-2 (ARNO) Sec7 domain (C2-Sec7) (UniProt Q99418); test: inhibition of the protein; conditions: inhibits GDP/GTP exchange on ARF-1 at 3.2 µM; purified recombinant protein; label: 5'-32P (filter binding)
T4 sequence (looked up, limits assumed): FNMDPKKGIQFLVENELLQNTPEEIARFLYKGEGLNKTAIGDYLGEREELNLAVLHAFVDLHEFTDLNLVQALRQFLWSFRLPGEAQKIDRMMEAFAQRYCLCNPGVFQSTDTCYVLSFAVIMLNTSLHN

[5] = target: T1, cytohesin-1 (full-length); test: inhibition of the protein; conditions: inhibits GDP/GTP exchange on ARF-1 at 3.2 µM, concentration-dependent; 50 mM HEPES pH 7.4, 1 mM MgCl2, 37 C; purified recombinant protein; protein details: 6xHis (cytohesin-1-His6), E. coli, Ni-NTA; label: 5'-32P (filter binding)
[6] = target: T5, cytohesin-1 Sec7 domain, biotinylated (UniProt Q15438); test: SELEX; conditions: 5 mM MgCl2, 22 C, purified recombinant protein, protein details: Sulfo-NHS-LC-biotin, on streptavidin Dynabeads
T5 sequence (looked up, limits assumed): T3 sequence (looked up, limits assumed)

Sequence	selection result [6]	also measured
GGGAGAGACAAGCUUGGGUCGAUGUUGGCAGGCUGUCGUCACUGGUGGGUCUAAUUCCCGAGAAGAGAAAGAGAAGUUAAUUAAGGAUCCUCAG [M15]	–	selection result [1]: selected
GGGAGAGACAAGCUUGGGUCGGGAAGGGUGGAAGUGCUGCUUGGUGCUCUGUCCUUUUUUAAGAAGAGAAAGAGAAGUUAAUUAAGGAUCCUCAG [M26]	–	selection result [1]: selected
GGGAGAGACAAGCUUGGGUCUAUUAUGCCUUUAGCUAGCGCAUUCUGUGGGGUGGGUGGAAGAAGAGAAAGAGAAGUUAAUUAAGGAUCCUCAG [M69]	–	functional effect of the aptamer [2]: not active; functional effect of the aptamer [3]: active; functional effect of the aptamer [4]: active; functional effect of the aptamer [5]: active
GGGAGAGACAAGCUUGGGUCUGCCCGCUUAGAAAUCCCAAAGUGCGGGAACGGUUGCGAAGAAGAGAAAGAGAAGUUAAUUAAGGAUCCUCAG [M21]	–	selection result [1]: selected
GGGAGAGACAAGCUUGGGUCUGCUCUCCAUGGGUGCUCUUGAAAGGGGAAGGGAUGUGGAGAAGAGAAAGAGAAGUUAAUUAAGGAUCCUCAG [M11]	–	selection result [1]: selected
GGGAGAGACAAGCUUGGGUCUGGUUUGAACGGGGGCGCAUCAGCCAUGCUAUAAACUCCAAGAAGAGAAAGAGAAGUUAAUUAAGGAUCCUCAG [M72]	–	selection result [1]: selected
GGGAUAGGAUCCACAUCUACGUAUUAACCCCCCACUCGACAACCCAACGCCCGCUAUUCACUGCAGACUUGACGAAGCUU [NC1F-C12]	selected	–
GGGAUAGGAUCCACAUCUACGUAUUAAUACACCAGCGCGCCGAGACUAACUCCGACUUCACUGCAGACUUGACGAAGCUU [NC1F-C2]	selected	–
GGGAUAGGAUCCACAUCUACGUAUUAAUACACGAUUCCAGGCCGGGAAACGAGGACUUCACUGCAGACUUGACGAAGCUU [NC1F-C15]	selected	–
GGGAUAGGAUCCACAUCUACGUAUUAAUACAGUAUAACCGGCAUGCCGCAUCGACUUCACUGCAGACUUGACGAAGCUU [NC1F-C10]	selected	–
GGGAUAGGAUCCACAUCUACGUAUUAAUACCAUAACACCGCCGGCCUGUGUACGCGUUCACUGCAGACUUGACGAAGCUU [NC1F-C19]	selected	–
GGGAUAGGAUCCACAUCUACGUAUUAAUGCAUGCCUACGACGCCCGCCGGUCACGUUCACUGCAGACUUGACGAAGCUU [NC1F-C13]	selected	–
GGGAUAGGAUCCACAUCUACGUAUUACCACCAGGGAUAAGGUCGAACCCUGUCGUCUUCACUGCAGACUUGACGAAGCUU	–	selection result ([6]; 12 identical clones, 20 mM Tris pH 7.5, 100 mM NaCl): selected
GGGAUAGGAUCCACAUCUACGUAUUACCGACCGGCCAUAUUACGCGUAAUCUACCUUCACUGCAGACUUGACGAAGCUU [NC1F-C3]	selected	–
GGGAUAGGAUCCACAUCUACGUAUUACGGGCCCACGCGCGACCGACCUCCUAACCAUUCACUGCAGACUUGACGAAGCUU [NC1F-C1]	selected	–
GGGAUAGGAUCCACAUCUACGUAUUAGCGCUGAUACAUCGACCUCGCCUAACAAGGUUCACUGCAGACUUGACGAAGCUU [NC1F-C7]	selected	–
GGGAUAGGAUCCACAUCUACGUAUUAGGCCGGCAAUGCGUAAACAGGGCCCAGAAGUUCACUGCAGACUUGACGAAGCUU [NC1F-C8]	selected	–
